Data as given in PubChem BioAssay AID504793 (Drosophila RNAi Screening Center, 2011)
The deposit covers about 23,000 reagents; this is a random part of those that have a named target and a result. Over the whole deposit, 62 (0.27%) were called active. 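Calls come from follow-up tests whose scores are not deposited, so confirmed genes may have low counts here; counts are not normalised per plate.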 Raw values vary from plate to plate and are shown uncorrected. Names joined by + are all predicted targets of the reagent.

Purpose: 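Whole-genome screen for parts of the DNA damage checkpoint at G2/M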 (primary screen)
System: Drosophila S2R+ cells
Reagents: long dsRNA against Drosophila genes, about 0.25 µg dsRNA per well
Time to read-out: 4 days of dsRNA, then 4 hours of drug before read-out
Treatment: doxorubicin 0.5 µM for 4 hours to cause double-strand breaks, in cells also given a low, harmless dose of dsRNA against nbs to sensitise the assay
Measured: 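Per-well count of mitotic cells stained for phospho-histone H3 after doxorubicin exposure, used as mitotic index; counts are raw and not normalised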
Direction: mitotic cells: higher = more cells in mitosis, weaker G2 arrest
Hit rule: 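Genes are called active only when high mitotic counts were reproduced with independent dsRNAs and mitosis was checked for delay without damage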
Meaning of the calls: active = confirmed in follow-up tests; inactive = not confirmed

gene | dsRNA | mitotic cells, replicate 1 | mitotic cells, replicate 2 | call
bard | DRSC14796 | 9 | – | inactive
CG15577 | DRSC18065 | 5 | – | inactive
Echs1 | DRSC06999 | 7 | – | inactive
rtp | DRSC12132 | 4 | – | inactive
l(3)neo38 | DRSC14946 | 8 | – | inactive
l(3)neo38 | DRSC16138 | 6 | – | inactive
l(3)neo38 | DRSC23262 | 1 | – | inactive
l(3)neo38 | DRSC27112 | 3 | – | inactive
l(3)neo38 | DRSC27668 | 6 | – | inactive
CG32204 | DRSC09574 | 4 | – | inactive
CG32204 | DRSC23663 | 6 | – | inactive
promL | DRSC08733 | 7 | – | inactive
CG6051 | DRSC15956 | 3 | – | inactive
CG6051 | DRSC25123 | 2 | – | inactive
CG11601 | DRSC00318 | 10 | – | inactive
LSm7 | DRSC02251 | 4 | – | inactive
ebo | DRSC18787 | 5 | – | inactive
ebo | DRSC28174 | 13 | – | inactive
Cpn | DRSC16613 | 6 | – | inactive
Cpn | DRSC23835 | 4 | – | inactive
CG15048 (retired record) | DRSC19624 | 8 | – | inactive
CG9701 | DRSC11093 | 6 | – | inactive
CG9701 | DRSC26332 | 4 | – | inactive
Keap1 | DRSC15528 | 9 | – | inactive
Keap1 | DRSC29209 | 8 | – | inactive
CG17732 | DRSC10283 | 6 | – | inactive
CG8191 + CG12379 | DRSC19451 | 9 | – | inactive
Nplp2 | DRSC09824 | 2 | – | inactive
Dus4 | DRSC02066 | 4 | – | inactive
CG4806 | DRSC04491 | 4 | – | inactive
Nep7 | DRSC15830 | 11 | – | inactive
Nep7 | DRSC26582 | 13 | – | inactive
Ste:CG33238 + Ste:CG33241 + Ste:CG33244 + 10 more | DRSC26515 | 6 | – | inactive
CG13325 | DRSC06362 | 6 | – | inactive
CG13325 | DRSC24773 | 5 | – | inactive
Fum1 | DRSC18344 | 6 | 13 | inactive
Fum1 | DRSC27406 | 6 | – | inactive
CG14646 | DRSC12232 | 11 | – | inactive
CG14646 | DRSC21316 | 9 | – | inactive
CG30222 | DRSC04125 | 4 | – | inactive
CG30222 | DRSC04262 | 7 | – | inactive
CG17002 | DRSC04978 | 3 | – | inactive
CG17002 | DRSC27573 | 2 | – | inactive
a | DRSC04668 | 8 | – | inactive
a | DRSC27708 | 4 | – | inactive
Mppe | DRSC07296 | 8 | – | inactive

Taken from above:
For “call”, Fum1 [DRSC27406] shows inactive
Value for CG15048 (retired record) [DRSC19624] under “call”: inactive
Entry of Dus4 [DRSC02066] in “call”: inactive
CG17732 [DRSC10283], mitotic cells, replicate 1: 6
CG9701 [DRSC26332], mitotic cells, replicate 1 = 4
Entry for CG11601 [DRSC00318] in “mitotic cells, replicate 1”: 10

Next results follow:
gene | dsRNA | mitotic cells, replicate 1 | mitotic cells, replicate 2 | call
CG17618 (retired record) + CG45049 | DRSC16163 | 2 | – | inactive
CG17618 (retired record) + CG45049 | DRSC23175 | 2 | – | inactive
CG13231 | DRSC06351 | 3 | – | inactive
CG13231 | DRSC26554 | 5 | – | inactive
CG18234 | DRSC10309 | 3 | – | inactive
pasi2 | DRSC16380 | 8 | – | inactive
Rap2l | DRSC04646 | 10 | – | inactive
4E-T | DRSC17201 | 10 | – | inactive
4E-T | DRSC17208 | 11 | – | inactive
CG5800 | DRSC19962 | 15 | – | inactive
CG5800 | DRSC28009 | 3 | – | inactive
Cubn2 | DRSC10561 | 8 | – | inactive
Cubn2 | DRSC22044 | 7 | – | inactive
PsGEF | DRSC18596 | 20 | – | inactive
PsGEF | DRSC27549 | 11 | – | inactive
CG12460 (retired record) | DRSC20970 | 8 | – | inactive
CG31698 | DRSC22226 | 3 | – | inactive
CG31698 | DRSC28563 | 5 | – | inactive
Zdhhc8 | DRSC18044 | 7 | – | inactive
Zdhhc8 | DRSC18122 | 11 | – | inactive
Aldh-III | DRSC06047 | 6 | – | inactive
Aldh-III | DRSC26578 | 6 | – | inactive
ais | DRSC10523 | 8 | – | inactive
ais | DRSC25460 | 1 | – | inactive
beat-Ib | DRSC03490 | 2 | – | inactive
fal | DRSC11087 | 8 | – | inactive
CG34247 | DRSC09933 | 5 | – | inactive
CG8785 | DRSC07266 | 4 | – | inactive
Hel89B | DRSC16700 | 6 | – | inactive
Hel89B | DRSC21575 | 15 | – | inactive
Rab9D + Rab9Fa + Rab9E | DRSC19853 | 12 | – | inactive
Proc-R | DRSC18410 | 10 | – | inactive
Pldn | DRSC10137 | 12 | – | inactive
Pldn | DRSC28270 | 4 | – | inactive
Mtl | DRSC16751 | 8 | – | inactive
l(3)S110416 (retired record) | DRSC17094 | 6 | – | inactive
fand | DRSC06967 | 3 | – | inactive
fand | DRSC27505 | 8 | – | inactive
CG11353 | DRSC08182 | 9 | – | inactive
Pcif1 | DRSC11655 | 7 | – | inactive
Pcif1 | DRSC24012 | 6 | – | inactive
CG7126 | DRSC16201 | 15 | – | inactive
CG7126 | DRSC25839 | 4 | – | inactive
Lint-O | DRSC18468 | 7 | – | inactive
Lint-O | DRSC23789 | 5 | – | inactive
E(spl)m8-HLH | DRSC16654 | 9 | – | inactive
E(spl)m8-HLH | DRSC28065 | 3 | – | inactive
CG8475 | DRSC03091 | 9 | – | inactive
mahj | DRSC04053 | 12 | – | inactive
Rpn1 | DRSC11274 | 58 | – | inactive
bab2 | DRSC08150 | 5 | – | inactive
bab2 | DRSC26326 | 10 | – | inactive
CG1628 | DRSC18109 | 9 | – | inactive
CG13737 | DRSC10064 | 6 | – | inactive
Pp1alpha-96A | DRSC16795 | 9 | – | inactive
Pp1alpha-96A | DRSC23320 | 7 | – | inactive
Pp1alpha-96A | DRSC25667 | 4 | – | inactive
CG14400 | DRSC02384 | 7 | – | inactive
CG13018 | DRSC06274 | 7 | – | inactive
hd | DRSC12316 | 6 | – | inactive
hd | DRSC26302 | 5 | – | inactive
pdm3 | DRSC06076 | 6 | – | inactive
pdm3 | DRSC23181 | 6 | – | inactive
pdm3 | DRSC27184 | 4 | – | inactive
pdm3 | DRSC29989 | 6 | – | inactive
Pp2A-29B | DRSC03400 | 6 | – | inactive
Pp2A-29B | DRSC28394 | 102 | – | inactive
CG13921 | DRSC08390 | 11 | – | inactive
CG13921 | DRSC25529 | 7 | – | inactive
CG3568 | DRSC18312 | 9 | – | inactive
CG3568 | DRSC27793 | 3 | – | inactive
qtc | DRSC02364 | 12 | – | inactive
qtc | DRSC02365 | 4 | – | inactive
qtc | DRSC27377 | 3 | – | inactive
CG6153 | DRSC02935 | 8 | – | inactive
CG13877 + pyx | DRSC08347 | 4 | – | inactive
Sf3a2 | DRSC09801 | 6 | – | inactive
gNacalpha | DRSC00654 | 7 | – | inactive
gNacalpha | DRSC29840 | 9 | – | inactive
CG13801 | DRSC08335 | 12 | – | inactive
odd | DRSC23024 | 9 | – | inactive
Snap24 | DRSC16864 | 1 | – | inactive
CG17190 | DRSC15184 | 9 | – | inactive
CG1545 | DRSC21532 | 9 | – | inactive
fd96Cb | DRSC16947 | 8 | – | inactive
fd96Cb | DRSC25322 | 7 | – | inactive
Lap1 | DRSC07454 | 7 | – | inactive
CG4612 | DRSC04478 | 6 | – | inactive
CG42568 + DnaJ-60 | DRSC04207 | 2 | – | inactive
CG42568 + DnaJ-60 | DRSC04611 | 8 | – | inactive
CG42568 + DnaJ-60 | DRSC27072 | – | – | inactive
CG12320 | DRSC14498 | 8 | – | inactive
CG12107 | DRSC06102 | 12 | – | inactive
SsRbeta | DRSC11290 | 11 | – | inactive
